Test results as given in patent publication US8334316B2, “Substituted organosulfur compounds and methods of using thereof” (ACEA Biosciences, Inc., priority 2004, dated 2012).

Test system: H460 (human non small cell lung cancer cell line)
Experiment: RT-CES system cell proliferation/cytotoxicity, H460
Type: cell-based
Details: H460 cells, FIGS. 1B and 1C, at concentrations studied

In the case of `CN[C@H]1CCc2cc(OC)c(OC)c(OC)c2-c2ccc(OC)c(=O)cc21` [colcemid, reference compound], the “Effect on cell proliferation (time-dependent cell index)” value is reported as “exhibited inhibitory ability against the proliferation”.
